The subject of the experiment is MCF-7 (breast adenocarcinoma). The experiment is described as follows: MTT reduction cytotoxicity assay, MCF-7. To be noted: Homo sapiens, MCF7, MCF-7, MTT, 72 h incubation. The experiment is classed as cell-based. The method, then:
The human tumor cell lines used were HL-60 (promyelocytic leukemia), MCF-7 (breast adenocarcinoma) and NCI-H292 (lung carcinoma). The cells were obtained from Rio de Janeiro Cell Bank (RJ, Brazil). Cancer cells were maintained in RPMI 1640 medium or DMEN supplemented with 10% fetal bovine serum, 2 mM glutamine, 100 U/mL penicillin, 100 μg/mL streptomycin at 37° C. with 5% CO2. Cytotoxicity of (6R)-6-[(2Z)-pent-2-enyl]-5,6-dihydro-2H-pyran-2-one [(R)-(−)-Tuberolactone] against the three tumor cell lines was assessed using the 3-(4,5-dimethyl-2-thiazolyl)-2,5-diphenyl-2H tetrazolium bromide (MTT) (Sigma Aldrich Co., St. Louis, Mo., USA) reduction assay. Tumor cells were plated in 96-well plates (10^5 cells/mL for adherent cells or 3×10^5 cells/mL for Leukemia). (6R)-6-[(2Z)-pent-2-enyl]-5,6-dihydro-2H-pyran-2-one [(R)-(−)-Tuberolactone] in DMSO (0.3-25 μg/mL) were added to each well and incubated for 72 h. Control groups received the same amount of DMSO. After 69 h of treatment, 25 μL of MTT (5 mg/mL) was added. Three hours later, the MTT formazan product was dissolved in 100 μL of DMSO. Absorbance was measured at 595 nm in plate spectrophotometer (Varioskan Flash, Thermo Scientific). […] IC50 values and their 95% confidence intervals for two different experiments were obtained by non linear regression using Graphpad Prism version 5.0 for Windows (GraphPad Software, San Diego, Calif., USA).
A general note: Tetrazolium assays rely on reduction of a dye to a coloured formazan, in cell work by metabolically active cells.

Consider `COc1cccc2c1C(=O)c1c(O)c3c(c(O)c1C2=O)C[C@@](O)(C(=O)CO)C[C@@H]3O[C@H]1C[C@H](N)[C@H](O)[C@H](C)O1` [Doxorubicin, reference compound], for which the IC50 (in general, the concentration that inhibits the measured activity by half) was 0.3 µg/mL (two experiments) and 500 nM (value in parentheses).

The values are drawn from patent US10149830B2, “Pharmaceutical agents and methods relating thereto” (Cushing Academy, priority 2016, dated 2018).
